Our source for the binding signal values is PMC7819943, “Rice protein-binding microarrays: a tool to detect cis-acting elements near promoter regions in rice”.

This is one part of the list.

The target of the assay is T1, OsSMF1 (Oryza sativa, UniProt Q6ZLB0 1-436).
T1 sequence: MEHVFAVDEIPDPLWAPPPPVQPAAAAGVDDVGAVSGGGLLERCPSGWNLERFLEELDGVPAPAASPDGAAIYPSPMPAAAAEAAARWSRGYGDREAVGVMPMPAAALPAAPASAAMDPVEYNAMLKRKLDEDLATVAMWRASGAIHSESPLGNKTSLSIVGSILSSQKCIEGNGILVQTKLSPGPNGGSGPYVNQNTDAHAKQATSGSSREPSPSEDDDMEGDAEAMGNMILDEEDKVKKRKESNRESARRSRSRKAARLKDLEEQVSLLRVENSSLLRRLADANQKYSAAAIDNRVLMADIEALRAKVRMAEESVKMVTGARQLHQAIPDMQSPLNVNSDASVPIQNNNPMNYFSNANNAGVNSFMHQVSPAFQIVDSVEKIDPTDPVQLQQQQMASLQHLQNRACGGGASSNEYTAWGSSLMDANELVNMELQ
Description: protein-binding microarray (RPBM); PBS, 2% BSA, 51.3 ng/ul salmon testes DNA, 50 uM zinc acetate, 200 nM TF, 25 C, 1 h; high values mean tight binding. The note with it: protein: recombinant; tags: N-terminal polyhistidine and DsRed monomer fusion (pET32a); chain copies: 2; label: CyDye5-dUTP incorporated in the synthesized complementary strand; 3' TTTTT single-stranded linker to array surface; dsDNA, one strand shown. The essentials: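 The binding signal is fluorescence intensity per array feature (arbitrary units). Readings came from an Axon 4000B scanner after a washed, 2% BSA-blocked, double-stranded custom Agilent array had been incubated for 1 h at 25 °C with 200 nM protein and 50 µM zinc acetate. The protein was a Ni–NTA-purified transcription factor fused N-terminally to polyhistidine and DsRed, expressed in E. coli BL21-CodonPlus.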
With “AACCAACCAACCACGTCGATCGCTCGCAGTCGCCGCCGCGCGGAGTCACCTAGTGCAG”, the binding signal was 3840 fluorescence intensity (a.u.). As to “CACGACTCACGACCGCGTCGTCGTCACCAACTCCGGCTACCGGAGTCACCTAGTGCAG”, the binding signal was 3990 fluorescence intensity (a.u.).

Turning to “GTAATCATGTACTAGTACCAAATACTGACACATTACCTTCCGGAGTCACCTAGTGCAG”, the binding signal was 4770 fluorescence intensity (a.u.). Consider “GTTAATCTCATTTAGTTACTGATGACGCCCTGTTGTTCGACGGAGTCACCTAGTGCAG”, for which the binding signal is 4960 fluorescence intensity (a.u.). Take “AATTTCATCCATATATTCGTAATCGTGTCACTAAAATTTTCGGAGTCACCTAGTGCAG”: the binding signal was 3760 fluorescence intensity (a.u.). With “CACTTCCTACTTTCATTTAGTGCTGACTTGTTGCAACTTTCGGAGTCACCTAGTGCAG”, the binding signal was 4030 fluorescence intensity (a.u.). With “GTTGCTCCAACTAGTTGTATGACCTGTCACTCGTGGAGAGCGGAGTCACCTAGTGCAG”, the binding signal is 10800 fluorescence intensity (a.u.). Then “CACATCCTCAGATATCTTACTTCATCCAATATCCTGTCATCGGAGTCACCTAGTGCAG”, with 4410 fluorescence intensity (a.u.); and “CTAGCGCGAGCGCGCCGCCTCCACCGCCGCCCCAGCGTGCCGGAGTCACCTAGTGCAG”, with 3200 fluorescence intensity (a.u.); and “CGGCCGGAATGGTAACGCAGGCAGAACACGCCGCGCGTACCGGAGTCACCTAGTGCAG”, with 3490 fluorescence intensity (a.u.). Under “CGCCTTATCCTCCCGCCTTTTCACGTCCCGCCACGCCGACCGGAGTCACCTAGTGCAG” stands 4060 fluorescence intensity (a.u.); under “GCCACCACCACCACCGTGACCTCGCGTCAGTCAGTCCCGTCGGAGTCACCTAGTGCAG”, 3960 fluorescence intensity (a.u.); under “TTGCATCAAAAGGTCCTAGTGTGACTGCTTATGTTGCAGTCGGAGTCACCTAGTGCAG”, 3900 fluorescence intensity (a.u.). Consider “CAATGGGCTGCGCCTTGACTGTACATCTGGGATGGGCTTACGGAGTCACCTAGTGCAG”, for which the binding signal was 3830 fluorescence intensity (a.u.). Then “GGGCGACGTGGCGCCATCCAGAGCGCGCCACGTCGCCCTCCGGAGTCACCTAGTGCAG”, with 11400 fluorescence intensity (a.u.); and “GGATGGGTTCACAGGCCACGTGGTGGACCATCTCCACCTCCGGAGTCACCTAGTGCAG”, with 7560 fluorescence intensity (a.u.); and “GAATAAGGGGTGATGCCATTGACATGTGGATCACACTGTTCGGAGTCACCTAGTGCAG”, with 3920 fluorescence intensity (a.u.). Turning to “TTAATTCAGACTATATGCATGCGTGGATGACATAGCATCGCGGAGTCACCTAGTGCAG”, the binding signal is 4310 fluorescence intensity (a.u.). As for “ATCTAAACACATTGTAGTAGGTAATGTGTCATCTAATCTTCGGAGTCACCTAGTGCAG”, the binding signal is 3670 fluorescence intensity (a.u.).

As to “TCAACGCAGCATTAACACGTTTGCTCCCCTCGAACCAGACCGGAGTCACCTAGTGCAG”, the binding signal was 3640 fluorescence intensity (a.u.).

Regarding “TACAAAATCATCCATCAACCGCAAAATCAGATATCGACCGCGGAGTCACCTAGTGCAG”, the binding signal is 3800 fluorescence intensity (a.u.). Consider “GTCTTGACTCATCCATGTACGTATGCGTATGCCACTACGACGGAGTCACCTAGTGCAG”, for which the binding signal was 4940 fluorescence intensity (a.u.). Under “GTCTACTTCCTTTGTAATCTGTTCTCATCATCATCAATCCCGGAGTCACCTAGTGCAG” stands 4180 fluorescence intensity (a.u.). Turning to “TTGAACTCGCTGCTGCAAAACAGATGGCGTCAGGCGATGACGGAGTCACCTAGTGCAG”, the binding signal is 22100 fluorescence intensity (a.u.). Under “GTCCCAGCGAGACCAGCGGCGTGGCGTCATCTCATTCTAACGGAGTCACCTAGTGCAG” stands 4620 fluorescence intensity (a.u.). Under “TCCATCTCTTATTTGCAACGTGTGTTGAGAAGGAAGAGACCGGAGTCACCTAGTGCAG” stands 3370 fluorescence intensity (a.u.); under “TCCGGTCCAGCCACTGCACACAGTGCGTGTCGTCGTTTCACGGAGTCACCTAGTGCAG”, 4330 fluorescence intensity (a.u.). With “ATTTGCCATATTTTGACTAGATTTGATAGCCGAGGCTATACGGAGTCACCTAGTGCAG”, the binding signal was 5240 fluorescence intensity (a.u.). For “CGCACTCCGCCCCGAACGCCATGGATTCCAGCTCGGCGAGCGGAGTCACCTAGTGCAG”, the binding signal is 3360 fluorescence intensity (a.u.).

“TGATGGCATCGCGTATACACGAGTACACTGACATGCCTCCCGGAGTCACCTAGTGCAG”: the binding signal is 3140 fluorescence intensity (a.u.). As to “TCATCAAAGTACTGAACTGAATTGATTGCAGCGTGTCATCCGGAGTCACCTAGTGCAG”, the binding signal is 3290 fluorescence intensity (a.u.). Turning to “CCAGCTGCAATCTAATGACGTAATTAAAGCGAATCGAGAGCGGAGTCACCTAGTGCAG”, the binding signal is 4400 fluorescence intensity (a.u.). Then “ATGTGAAGAGAGGCATAAATCATCATAATCATGGCAGCTGCGGAGTCACCTAGTGCAG”, with 3180 fluorescence intensity (a.u.); and “TGTTTAGAGGTGGTGACTCTTATTTGTAATCGTTGTTTGGCGGAGTCACCTAGTGCAG”, with 5540 fluorescence intensity (a.u.). Take “CCACGTCCTTCTCCTCTAGGCCTCCCTGACGTCACGGTCGCGGAGTCACCTAGTGCAG”: the binding signal was 14500 fluorescence intensity (a.u.).

For the sequence “CTCGCCGCCGCGTGGATCCATCTCATCCCCTCGCCGCCGACGGAGTCACCTAGTGCAG”, the binding signal was 6080 fluorescence intensity (a.u.). Then “ATATATATATATATATATATATACACTATATACTATACCGCGGAGTCACCTAGTGCAG”, with 3260 fluorescence intensity (a.u.).

Turning to “AGAACTAATTTAACACGTAACAAAAGTTTAATGACCGAATCGGAGTCACCTAGTGCAG”, the binding signal is 3580 fluorescence intensity (a.u.).

Take “GAGGCCACCACACAGGGAACAACACGTGGCGGACGCAACGCGGAGTCACCTAGTGCAG”: the binding signal is 6200 fluorescence intensity (a.u.). Then “GTTTTCTCGGGATAGGTGAGGTGTAAGTCCGAAGTTCCAACGGAGTCACCTAGTGCAG”, with 3150 fluorescence intensity (a.u.); and “ATTTCTTCTCTCCCATCACATGACACGGTCTTCTCTACTTCGGAGTCACCTAGTGCAG”, with 4310 fluorescence intensity (a.u.). Under “CCCTAAACTCAGCACGTGTACTTCCGTGATAGGTGTTTAGCGGAGTCACCTAGTGCAG” stands 4240 fluorescence intensity (a.u.).
